PubChem BioAssay AID1508597, Cure First, 2020

- Aim: 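Knock-downs altering ovarian cancer cell survival with or without PARP inhibitor rucaparib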 (primary screen)
- Cells: human ovarian carcinoma lines grown from tumours: OCI-P5x (papillary serous) and OCI-C5x (clear cell)
- Reagents: siRNA pool against human genes, 1.25 pmol siRNA per well
- Timing: 72 h or 96 h, depending on the cell culture
- Challenge: rucaparib 20 µM (about IC30) or vehicle, present until read-out
- Rucaparib or vehicle: Vehicle
- Cell line: OCI-P5x (serous)
- Detection: 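ATP luminescence measured at 72 or 96 h according to the culture, then normalised and expressed as percent viability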
- Scale: viability, normalised: higher = more viable cells remaining
- Rule for the call: 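Active when normalised viability falls below 80 percent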
- Meaning of the calls: active = viability under 80%; inactive = viability 80% or more
This is an unselected part of the about 2,100 reagents, in one setting of the screen. 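Calls flag viability under 80% in either arm, not effects specific to rucaparib; the reference for percent is not stated.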 A reagent listed more than once was tested more than once; the source does not tell the runs apart. The record does not give: the 100% reference.

gene knocked down	technical replicate	viability, normalised (%)	Outcome
DCLRE1C	1	55.8	active
DCLRE1C	1	50.2	active
DCLRE1C	2	60.5	active
DCLRE1C	2	55.5	active
DCLRE1C	3	52.4	active
DCLRE1C	3	56	active
TGFBR1	1	118	inactive
TGFBR1	2	103	inactive
TGFBR1	3	119	inactive
MAPK6	1	93.2	inactive
MAPK6	2	84.6	inactive
MAPK6	3	52.4	active
MAP3K15	1	75.3	active
MAP3K15	2	64.8	active
MAP3K15	3	71.1	active
PAK2	1	72.5	active
PAK2	2	72.3	active
PAK2	3	78.1	active
AKT2	1	94.9	inactive
AKT2	2	90.8	inactive
AKT2	3	91.4	inactive
ARID3A	1	83.3	inactive
ARID3A	2	75.8	active
ARID3A	3	91.1	inactive

Sorted by “viability, normalised (%)” (highest first): 4 of the entries above
gene knocked down	technical replicate	viability, normalised (%)	Outcome
AKT2	1	94.9	inactive
AKT2	2	90.8	inactive
PAK2	3	78.1	active
PAK2	2	72.3	active
